Reference: publication PMC4230410
These are yes or no findings as the source states them, for the method shown.

Molecular target: Arabidopsis thaliana PTR1 (Arabidopsis thaliana) (UniProt Q9M390)
Test: SEC; Superdex 200 size exclusion column, final step of purification; membranes solubilised in 1% DDM; GFP-His tag cleaved off; both purified

- binding: no binding
B1: Arabidopsis thaliana PTR1 (protein, UniProt Q9M390 1-570)
chain: MEEKDVYTQDGTVDIHKNPANKEKTGNWKACRFILGNECCERLAYYGMGTNLVNYLESRLNQGNATAANNVTNWSGTCYITPLIGAFIADAYLGRYWTIATFVFIYVSGMTLLTLSASVPGLKPGNCNADTCHPNSSQTAVFFVALYMIALGTGGIKPCVSSFGADQFDENDENEKIKKSSFFNWFYFSINVGALIAATVLVWIQMNVGWGWGFGVPTVAMVIAVCFFFFGSRFYRLQRPGGSPLTRIFQVIVAAFRKISVKVPEDKSLLFETADDESNIKGSRKLVHTDNLKFFDKAAVESQSDSIKDGEVNPWRLCSVTQVEELKSIITLLPVWATGIVFATVYSQMSTMFVLQGNTMDQHMGKNFEIPSASLSLFDTVSVLFWTPVYDQFIIPLARKFTRNERGFTQLQRMGIGLVVSIFAMITAGVLEVVRLDYVKTHNAYDQKQIHMSIFWQIPQYLLIGCAEVFTFIGQLEFFYDQAPDAMRSLCSALSLTTVALGNYLSTVLVTVVMKITKKNGKPGWIPDNLNRGHLDYFFYLLATLSFLNFLVYLWISKRYKYKKAVGRAH
